Test: Fasting serum IGF-I, IGF-II and leptin and BMI SDS in short SGA children on rhGH therapy
Assay type: in vivo, human
Excerpt: All subjects were born SGA, had marked short stature (height approximately—3 standard deviation score (SDS)) with a height velocity<25th percentile for >1 year prior to starting rhGH therapy. SGA was defined as a birth weight<10th percentile for gestational age. Additional enrolment criteria for inclusion into the study included; no change in Tanner pubertal stage and/or testicular volumes throughout the study period, normal GH response to clonidine stimulation (defined as a GH level≧7 μgm/L), absence of both islet cell antibodies (<10 Juvenile Diabetes Foundation units) and insulin autoantibodies to exclude type 1 prediabetes. Prepubertal subjects were defined as males with a testicular volume<4 ml and girls with tanner stage 1 breast development. Subjects were excluded if; a chromosomal, intrauterine infection or syndromal cause for SGA was identified, a first degree relative had type 2 diabetes mellitus, or medical therapy was taken that was known to influence SI. Subjects were recruited from the Endocrinology Clinics at Starship Children's Hospital. […] Body mass index (BMI) was used as a measure of relative obesity and expressed as BMI SDS.
Plasma glucose concentration was measured using a Hitachi 911 automated random access analyser (Tokyo, Japan) with an interassay coefficient variation of 1.2% (Trinder P. Determination of blood glucose using an oxidase-peroxidase system with a non-carcinogenic chromogen. J Clin Pathol 1995; 22: 158-61). Insulin was determined by Abbotts IMX microparticle enzyme immunoassay with an interassay coefficient of variation of <5%. Plasma IGF-I was measured using an established IGF binding protein blocked radioimmunoassay (Blum et al. Radioimmunoassays for insulin-like growth factors and their binding proteins. Growth Reg. 1994; 4: (Suppl.) 11-19). […] IGF II was then measured by RIA using a highly specific polyclonal antiserum (Blum et al. A specific radioimmunoassay for insulin-like growth factor II. The interference of IGF binding proteins can be blocked by excess IGF-I. Acta Endcrinol (Copenh) 1988; 129:427-435). […]

## rhGH: recombinant human growth hormone given to short SGA children
During rhGH treatment, −0.7±0.5 before
  Body mass index SDS: −0.7±0.5
With rhGH treatment, 10.9±5.6 pretreatment, no change
  fasting serum leptin: 7.1 ± 3.0 mg/L
With rhGH treatment, 539±52 pretreatment, no change
  fasting serum IGF-II level: 566±35 μgm/l

From patent US20050043231A1, “Therapy for growth hormone induced insulin resistance in juveniles with growth disorders” (priority 2001, published 2005)
